{
  "sequences": {"note": "Amino acid sequences for entries named in this document (tags omitted).", "UniProt Q9GZZ9, whole entry": "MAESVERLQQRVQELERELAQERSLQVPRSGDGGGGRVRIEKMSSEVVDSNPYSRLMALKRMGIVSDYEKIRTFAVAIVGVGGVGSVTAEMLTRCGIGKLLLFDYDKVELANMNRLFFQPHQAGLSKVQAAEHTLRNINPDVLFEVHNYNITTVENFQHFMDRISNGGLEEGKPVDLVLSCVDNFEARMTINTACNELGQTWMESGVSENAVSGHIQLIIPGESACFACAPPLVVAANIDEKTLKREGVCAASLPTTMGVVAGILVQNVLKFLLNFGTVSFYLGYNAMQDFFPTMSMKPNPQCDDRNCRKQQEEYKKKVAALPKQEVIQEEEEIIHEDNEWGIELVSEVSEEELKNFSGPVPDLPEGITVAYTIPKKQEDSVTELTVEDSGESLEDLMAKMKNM"},
  "source": "paper PMC5996148",
  "assay_in_all_cases": "protein microarray (ProtoArray v5.0), streptavidin-Alexa Fluor 647",
  "conditions_in_all_cases": "3'-biotin; 20 mM Tris (pH 7.5), 5 mM MgCl2, 100 mM KCl, 0.1% Tween-20, A/T-rich and random oligonucleotide blockers; temperature not stated; high values mean tight binding",
  "key": {"[1]": {"test_system": "Transmembrane protein 192 (human)"}, "[2]": {"test_system": "Transmembrane protein 203 (human)"}, "[3]": {"test_system": "Transmembrane protein 207 (human)"}, "[4]": {"test_system": "Transmembrane protein 43 (human)"}, "[5]": {"test_system": "Transmembrane protein 86B (human)"}, "[6]": {"test_system": "Trypsin-2 (human)"}, "[7]": {"test_system": "Tryptase delta (human)"}, "[8]": {"test_system": "Tryptophanyl-tRNA synthetase, cytoplasmic (human)"}, "[9]": {"test_system": "Tubulin alpha-3 chain (human)"}, "[10]": {"test_system": "Tubulin-specific chaperone D (human)"}, "[11]": {"test_system": "Tumor protein D52 (human)"}, "[12]": {"test_system": "Tumor suppressor candidate 3 (human)"}, "[13]": {"test_system": "Type I iodothyronine deiodinase (human)"}, "[14]": {"test_system": "Tyrosine-protein kinase transmembrane receptor ROR1 (human)"}, "[15]": {"test_system": "UBADC1 (human)"}, "[16]": {"test_system": "UBE1C (human)"}, "[17]": {"target": "UBE1DC1 (UniProt Q9GZZ9)"}, "[18]": {"test_system": "UBE1L (human)"}, "[19]": {"test_system": "UBE2C (human)"}, "[20]": {"test_system": "UBE2DNL (human)"}},
  "note": "Where “and” joins values, the source holds several entries; their conditions need not be identical. Identical values can stand only once. Some of the results follow. For some assays here: The exact form of the protein is not confirmed.",
  "data": [
    {"sequence": "GGGAGGCTGAGGCAGG [G4-1 biotinylated (PQS2)]", "values": [
      {"measurement": "binding signal", "setting": "[1]", "value": -0.266, "unit": "z-score"},
      {"measurement": "binding signal", "setting": "[2]", "value": -0.33, "unit": "z-score"},
      {"measurement": "binding signal", "setting": "[3]", "value": -0.302, "unit": "z-score"},
      {"measurement": "binding signal", "setting": "[4]", "value": -0.349, "unit": "z-score"},
      {"measurement": "binding signal", "setting": "[5]", "value": -0.339, "unit": "z-score"},
      {"measurement": "binding signal", "setting": "[6]", "value": -0.31, "unit": "z-score"},
      {"measurement": "binding signal", "setting": "[7]", "value": -0.315, "unit": "z-score"},
      {"measurement": "binding signal", "setting": "[8]", "value": -0.314, "unit": "z-score"},
      {"measurement": "binding signal", "setting": "[9]", "value": -0.305, "unit": "z-score"},
      {"measurement": "binding signal", "setting": "[10]", "value": -0.353, "unit": "z-score"},
      {"measurement": "binding signal", "setting": "[11]", "value": -0.352, "unit": "z-score"},
      {"measurement": "binding signal", "setting": "[12]", "value": -0.318, "unit": "z-score"},
      {"measurement": "binding signal", "setting": "[13]", "value": -0.337, "unit": "z-score"},
      {"measurement": "binding signal", "setting": "[14]", "value": -0.244, "unit": "z-score"},
      {"measurement": "binding signal", "setting": "[15]", "value": -0.351, "unit": "z-score"},
      {"measurement": "binding signal", "setting": "[16]", "value": -0.232, "unit": "z-score"},
      {"measurement": "binding signal", "setting": "[17]", "value": -0.346, "unit": "z-score"},
      {"measurement": "binding signal", "setting": "[18]", "value": -0.298, "unit": "z-score"},
      {"measurement": "binding signal", "setting": "[19]", "value": "-0.364 z-score and -0.368 z-score"},
      {"measurement": "binding signal", "setting": "[20]", "value": -0.315, "unit": "z-score"}
    ]}
  ]
}
